Changes are numbered by the printed parent chain. A weaker result is weaker than the reference pair of the same experiment. For some of these results: Tags and fusion partners may be left off the protein sequences shown.
Assays:
Test in all cases: SPR
Details in all cases: SPR: HBS-EP running buffer, 25 °C, BIAcoreX, nonspecific 30-mer DNA in the reference cell; recombinant protein; residues 2-222; protein details: N-terminal MBP (pMalc2); label: 3' biotin on forward strand
[1] = molecular target: T1, AmtR-MBP S55A (Corynebacterium glutamicum ATCC13032) (UniProt H7C699)
T1 sequence (looked up): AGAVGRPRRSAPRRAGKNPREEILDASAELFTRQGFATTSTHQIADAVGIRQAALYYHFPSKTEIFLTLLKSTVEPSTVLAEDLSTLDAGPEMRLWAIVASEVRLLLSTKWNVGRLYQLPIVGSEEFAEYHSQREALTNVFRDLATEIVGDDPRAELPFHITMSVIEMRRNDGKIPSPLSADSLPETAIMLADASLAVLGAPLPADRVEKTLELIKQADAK

[2] = molecular target: T2, AmtR-MBP T42A (Corynebacterium glutamicum ATCC13032) (UniProt H7C699)
T2 sequence (looked up): T1 sequence (looked up) with T41A, A54S

[3] = molecular target: AmtR-MBP Y57A (Corynebacterium glutamicum ATCC13032) (UniProt H7C699)
[4] = molecular target: T3, AmtR-MBP Y58A (Corynebacterium glutamicum ATCC13032) (UniProt H7C699)
T3 sequence (looked up): T1 sequence (looked up) with A54S, Y57A

Measured: binding result

TAAATTACCTGTTAAACTATAGAAAATATC (double strand) [amtBp SPR 30-mer]
binds more weakly: all assays above

Source: publication PMC2723105, “DNA binding by Corynebacterium glutamicum TetR-type transcription regulator AmtR”
